{"source": "patent US20120225093A1", "about": "“Abrogating HIV-1 Infection via Drug-Induced Reactivation of Apoptosis” (UNIVERSITY OF MEDICINE AND DENTISTRY OF NEW JERSEY, priority 2010, published 2012)", "key": {"[1]": {"tested_on": "eIF5A", "assay": "eIF5A maturation in 293T cells, immunoblot with NIH-353 antibody", "format": "cell-based, human", "conditions": "control compounds", "method": "Rabbit NIH-353 antibody was raised against mature human eIF5A (Cracchiolo et al. Gynecol Oncol 2004, 94:217-222). Antibody against DOHH was generated by M. H. Park. Anti-eIF5A-1 monoclonal antibody (BD) was purchased from BD Biosciences. The anti-FLAG monoclonal antibody M2 and anti-actin antibody were purchased from Sigma.\n(§1) Immunoprecipitation and immunoblotting experiments were carried out as described previously in Hoque et al. Mol Cell Biol 2003, 23:1688-1702.\nTo examine the effect of the drugs on the synthesis of modified eIF5A, 293T cells transfected with a FLAG-tagged eIF5A expression vector were simultaneously treated with CPX or DEF. FLAG-eIF5A was monitored using NIH-353 and anti-FLAG antibodies (FIG. 2A,B). The NIH-353 antibody reacts preferentially with post-translationally modified eIF5A. CPX reduced the appearance of mature eIF5A over the 3-30 μM concentration range, while DEF was effective at 200-400 μM. […] In addition to the CPX homolog Agent P2, deferoxamine (DFOX; Desferal™) was used as a control compound."}, "[2]": {"tested_on": "H9-HIV cells", "assay": "TUNEL DNA fragmentation in H9-HIV cells", "format": "cell-based", "conditions": "24 hr; DFOX up to 20 μM", "method": "The potential across the mitochondrial membrane of live cells was determined flow-cytometrically with the lipophilic cationic fluorochrome JC-1 (5,5′,6,6′-tetrachloro-1,1′,3,3′-tetraethylbenzimidazolcarbocyanine iodide) immediately after sample harvest (BD™ Mitoscreen Kit, BD Biosciences; San Diego, Calif.). DNA fragmentation was quantified flow-cytometrically, using a TUNEL (terminal deoxynucleotide transferase dUTP nick end-labeling) assay (APO-BRDU™; Phoenix Flow Systems; San Diego, Calif.) and a dual-color assay for annexin V binding and 7-AAD exclusion (Annexin V-PE 7-AAD Apoptosis Detection Kit I™; BD Biosciences Pharmingen, San Jose, Calif.). The apoptotic volume decrease of cells was assessed by the reduction of their diameter (VI-CELL™; Beckman Coulter; Fullerton, Calif.).\nThe relationship between iron chelation and apoptosis was assessed using the TUNEL assay to measure DNA fragmentation. DEF induces this late apoptotic event in HIV-expressing ACH-2 cells. Similarly, CPX triggered DNA fragmentation in H9-HIV cells in a dose-dependent manner with a steep, almost 10-fold increase in TUNEL-positive cells between 10 and 20 μM CPX that leveled off at 40 μM (FIG. 11C). […]"}, "[3]": {"target": "T1, eIF5A:DOHH complex (Homo sapiens, UniProt Q9BU89)", "T1 construct": "Endogenous DOHH co-immunoprecipitated with FLAG-eIF5A; expressed in transfected cells; host or cells: 293T cells (DOHH endogenous, FLAG-eIF5A transfected)", "T1 sequence (Q9BU89 1-302)": "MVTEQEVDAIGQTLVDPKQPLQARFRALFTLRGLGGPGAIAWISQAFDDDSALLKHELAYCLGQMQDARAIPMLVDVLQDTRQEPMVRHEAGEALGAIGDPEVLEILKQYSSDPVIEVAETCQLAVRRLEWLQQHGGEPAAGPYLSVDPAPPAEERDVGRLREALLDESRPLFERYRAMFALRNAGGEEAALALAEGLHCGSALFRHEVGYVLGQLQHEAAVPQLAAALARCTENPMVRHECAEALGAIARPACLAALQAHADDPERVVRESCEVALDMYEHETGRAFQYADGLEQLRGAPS", "assay": "Co-immunoprecipitation of eIF5A with DOHH from 293T cell extracts", "format": "cell-based", "conditions": "CPX 30 μM, P2 30 μM, DEF 250 μM, DFOX 10 μM, GC7 10 μM; 24 hr", "method": "as §1\neIF5A forms tight complexes with its modifying enzymes. Unmodified eIF5A (lysine-50) immunoprecipitates with DHS and deoxyhypusyl-eIF5A interacts with DOHH in vitro. It was discovered that the deoxyhypusyl-eIF5A:DOHH complex formed in vivo can be detected by immunoprecipitation from cell extracts. Taking advantage of this finding, the effects of the drugs on the enzyme-substrate interaction were tested. FLAG-eIF5A was expressed in 293T cells and complexes that immunoprecipitated with anti-FLAG antibody were immunoblotted and probed with antibodies against DOHH. […] As a further control, the DHS inhibitor GC7 was included in this assay. […] As expected, none of the compounds affected the immunoprecipitation of FLAG-eIF5A (FIG. 2D, middle panel) or the expression of endogenous eIF5A (FIG. 2D, bottom panel). Reciprocally, the interaction between endogenous eIF5A and tagged DOHH was inhibited by CPX and DEF (FIG. 2E, right). Similarly, the interaction of endogenous eIF5A with tagged DHS was inhibited by GC7 (FIG. 2E, left) but resistant to CPX and DEF. It is concluded that CPX and DEF, but not P2 or DFOX, target DOHH and inhibit its interaction with its substrate, deoxyhypusylelF5A."}}, "note": "For at least one compound, name, drawing or mass did not settle the structure.", "data": [{"smiles": "CC(=O)N(O)CCCCCNC(=O)CCC(=O)N(O)CCCCCNC(=O)CCC(=O)N(O)CCCCCN", "note": "[DFOX, deferoxamine]", "values": [{"measurement": "effect on appearance of mature FLAG-eIF5A", "setting": "[1]", "value": "little or no effect"}, {"measurement": "DNA fragmentation (TUNEL)", "setting": "[2]", "value": "did not enhance DNA fragmentation even at 20 μM"}, {"measurement": "association of endogenous DOHH with FLAG-eIF5A", "setting": "[3]", "value": "neither P2 or DFOX prevented the formation of the eIF5A:DOHH complex"}]}]}
